Record: PubChem BioAssay AID1259308 (NCATS, 2017)

Purpose: 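Knock-downs that increase output of a recombinant reporter protein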 (primary screen)
System: human HEK293 embryonic kidney cells stably expressing firefly luciferase (HEK-CMV-Luc2-Hygro)
Reagent: single siRNA against human genes, 0.8 pmol siRNA per well
Timing: 72 h
Detection: 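Luciferase light (ONE-Glo) measured on one replicate plate set and viability (CellTiter-Glo) on the other, scaled to a negative control siRNA, with robust z-scores and luciferase per cell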
Direction: total luciferase, z-score and total luciferase, % of control: higher = more reporter protein produced; luciferase per cell, z-score: higher = more reporter output per viable cell; viable cells, % of control: higher = more viable cells
Hit rule: 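An siRNA counts as active if its total luciferase robust z-score exceeds 3; genes with two or more such siRNAs out of three were retested with fresh siRNAs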
Calls: active = raised luciferase; inactive = no rise
This is an unselected part of about 59,000 deposited reagents. Of all reagents, about 1,510 (2.6%) were called active. 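Calls use total luciferase alone and ignore viability, so some active siRNAs may act by altering cell number.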 Reagents against one gene are numbered here.

The opening 4 records, to show the layout:
gene	reagent no.	total luciferase, z-score	total luciferase, % of control	luciferase per cell, z-score	viable cells, % of control	call
URB1-DT	1	-0.568	70.6	0.597	67.4	inactive
URB1-DT	2	0.569	93.2	1.36	72.8	inactive
URB1-DT	3	-0.974	62.5	-0.818	86.6	inactive
ESPNL	1	-0.454	72.9	0.0829	79.7	inactive

The list itself, from the start:
gene	reagent no.	total luciferase, z-score	total luciferase, % of control	luciferase per cell, z-score	viable cells, % of control	call
URB1-DT	1	-0.568	70.6	0.597	67.4	inactive
URB1-DT	2	0.569	93.2	1.36	72.8	inactive
URB1-DT	3	-0.974	62.5	-0.818	86.6	inactive
ESPNL	1	-0.454	72.9	0.0829	79.7	inactive
ESPNL	2	-0.348	75	-0.664	99.8	inactive
ESPNL	3	-0.623	69.5	-1.26	108	inactive
SLC25A38	1	-0.448	73	-0.474	92.4	inactive
SLC25A38	2	-0.198	77.9	-0.288	94	inactive
SLC25A38	3	1.25	107	1.13	88.5	inactive
CD8B	1	-0.259	76.7	-0.864	108	inactive
CD8B	2	-0.169	78.5	0.0445	86.7	inactive
CD8B	3	-0.133	79.2	-0.762	108	inactive
CLEC7A	1	-1.31	55.8	-0.265	66.9	inactive
CLEC7A	2	0.356	89	-0.0742	101	inactive
CLEC7A	3	0.155	85	-0.461	107	inactive
NOL7	1	-1.31	55.8	-0.835	77.7	inactive
NOL7	2	0.185	85.6	0.14	92.2	inactive
NOL7	3	-1.62	49.7	-0.423	62	inactive
RHBDL3	1	-0.64	69.2	-0.78	94.9	inactive
RHBDL3	2	-1.12	59.7	-1.56	100	inactive
RHBDL3	3	-0.0651	80.6	-0.303	97.5	inactive
LOC645481	1	2.42	130	1.7	93	inactive
LOC645481	2	-1.61	49.8	-1.14	75.2	inactive
LOC645481	3	0.0578	83	0.0627	91.3	inactive
MMP15	1	-0.298	76	0.473	75	inactive
MMP15	2	-0.828	65.4	-0.319	79.5	inactive
MMP15	3	-0.312	75.7	0.344	77.2	inactive
SORCS1	1	0.255	87	-0.098	99.7	inactive
SORCS1	2	-0.518	71.6	-0.737	97.1	inactive
SORCS1	3	-0.845	65.1	-0.259	77.9	inactive
JARID2	1	0.0524	82.9	-0.0499	93.9	inactive
JARID2	2	0.146	84.8	0.532	82.4	inactive
JARID2	3	-0.0512	80.9	0.153	86.8	inactive
OR8A1	1	-0.364	74.7	-0.139	86.5	inactive
OR8A1	2	0.515	92.1	-0.291	111	inactive
OR8A1	3	0.75	96.8	1.24	78	inactive
DYNC1LI1	1	-0.244	77	-0.0805	87.9	inactive
DYNC1LI1	2	-0.231	77.3	-0.532	99.4	inactive
DYNC1LI1	3	0.352	88.9	-0.253	106	inactive
ZNF428	1	0.777	97.3	1.25	78.2	inactive
ZNF428	2	-0.299	75.9	-0.299	91.8	inactive
ZNF428	3	0.0766	83.4	0.416	83.5	inactive
CAVIN3	1	0.208	86	-0.255	103	inactive
CAVIN3	2	1.36	109	1.11	90.9	inactive
CAVIN3	3	0.254	86.9	0.489	85.4	inactive
SLC10A4	1	-1.51	51.8	-0.851	72.4	inactive
SLC10A4	2	0.211	86.1	-0.621	113	inactive
SLC10A4	3	1.35	109	0.771	99.2	inactive
SLC44A4	1	1.52	112	0.323	115	inactive
SLC44A4	2	0.536	92.5	0.65	87.1	inactive
SLC44A4	3	-1.62	49.6	-2.16	97.9	inactive
ANKRD46	1	1.11	104	0.691	96.9	inactive
ANKRD46	2	0.293	87.7	-0.327	107	inactive
ANKRD46	3	-0.674	68.5	-0.686	91.7	inactive
GBP1	1	-1.32	55.6	-1.42	90.4	inactive
GBP1	2	-0.0127	81.6	-0.396	101	inactive
GBP1	3	0.509	92	0.554	88.9	inactive
HLX	1	-2.11	39.8	-0.816	55.2	inactive
HLX	2	-0.551	70.9	-0.296	85.7	inactive
HLX	3	0.504	91.9	-0.236	109	inactive
IL11RA	1	0.208	86	0.311	88.6	inactive
IL11RA	2	0.0353	82.6	0.97	71.5	inactive
IL11RA	3	-0.819	65.6	-0.959	94.4	inactive
SYNDIG1L	1	-0.101	79.9	-0.352	97.9	inactive
SYNDIG1L	2	2.05	123	2.33	74.3	inactive
SYNDIG1L	3	-0.738	67.2	2.16	42.6	inactive
SYNDIG1L	4	2.53	132	2.07	85.6	inactive
SYNDIG1L	5	-1.35	55.1	-1.2	84.4	inactive
SYNDIG1L	6	3.74	156	2.55	89.1	active
PDE7B	1	0.685	95.5	0.544	92.5	inactive
PDE7B	2	-2.05	41.1	-1.72	72.2	inactive
PDE7B	3	0.17	85.3	-0.132	98.6	inactive
PUDP	1	-0.545	71	-1.45	116	inactive
PUDP	2	-0.768	66.6	-0.162	77.7	inactive
PUDP	3	-1.05	61	-0.891	86.2	inactive
